Values quoted from earlier work in US8093271B2, “Anti-acid pharmaceutical composition in powder form and process for making it” (Laboratorios Bago S.A., priority 2006, dated 2012).
At least one structure is not confirmed: it was looked up by name or label, or the drawing left a doubt.

The chains behind the UniProt entries cited, without tags or fusion partners.
UniProt P20648, whole entry: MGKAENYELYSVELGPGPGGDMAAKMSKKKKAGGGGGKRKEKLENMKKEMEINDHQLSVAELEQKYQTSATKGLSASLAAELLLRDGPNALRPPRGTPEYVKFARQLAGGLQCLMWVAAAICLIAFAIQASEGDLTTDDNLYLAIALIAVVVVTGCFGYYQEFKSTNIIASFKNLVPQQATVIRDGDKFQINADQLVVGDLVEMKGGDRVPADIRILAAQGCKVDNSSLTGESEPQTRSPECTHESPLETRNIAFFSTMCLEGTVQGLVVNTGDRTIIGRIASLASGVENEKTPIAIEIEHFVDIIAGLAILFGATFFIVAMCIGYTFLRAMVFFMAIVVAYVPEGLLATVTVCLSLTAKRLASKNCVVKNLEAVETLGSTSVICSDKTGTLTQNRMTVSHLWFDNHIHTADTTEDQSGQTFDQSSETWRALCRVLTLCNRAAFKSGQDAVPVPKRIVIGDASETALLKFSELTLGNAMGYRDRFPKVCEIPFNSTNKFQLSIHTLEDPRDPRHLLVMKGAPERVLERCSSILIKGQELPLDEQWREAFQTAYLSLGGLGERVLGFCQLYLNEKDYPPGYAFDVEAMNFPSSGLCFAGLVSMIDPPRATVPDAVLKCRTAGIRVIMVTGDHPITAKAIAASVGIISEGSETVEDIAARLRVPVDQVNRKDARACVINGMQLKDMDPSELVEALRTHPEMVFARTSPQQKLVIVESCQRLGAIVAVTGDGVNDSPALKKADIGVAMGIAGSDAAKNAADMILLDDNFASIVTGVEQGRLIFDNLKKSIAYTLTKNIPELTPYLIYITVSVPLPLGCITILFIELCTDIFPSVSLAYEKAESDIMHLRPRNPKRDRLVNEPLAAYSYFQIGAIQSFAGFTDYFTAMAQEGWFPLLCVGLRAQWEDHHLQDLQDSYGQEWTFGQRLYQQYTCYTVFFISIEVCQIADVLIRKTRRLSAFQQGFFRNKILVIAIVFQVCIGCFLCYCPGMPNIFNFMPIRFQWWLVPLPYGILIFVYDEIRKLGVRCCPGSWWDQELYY

Target: T1, H^+—K^+−-ATPase enzyme of stomach parietal cell (Homo sapiens, UniProt P20648)
T1 construct: H^+—K^+−-ATPase enzyme of stomach parietal cell; from tissue; host or cells: stomach parietal cells of patients with duodenal ulcer (in vivo)
Details: patients with duodenal ulcer, oral 20 mg

COc1ccc2[nH]c([S+]([O-])Cc3ncc(C)c(OC)c3C)nc2c1 (centres unmarked) [omeprazole]
time gastric pH is kept in 3 or greater than 3: 17 hours | time to maximum effect: ≤ 4 days of treatment
